These are yes or no findings as the source states them, for the method shown. Binding seen in cells or lysates may run through a third protein. A yes stands for co-enrichment or nearness to the bait. Other partners may have been found.
Target: FLAG-Myosin-A WT (complement) (Toxoplasma gondii) (UniProt O00934)
Assay: proximity labelling; Biotinylation by Antibody Recognition (BAR): fixed, permeabilized FLAG-MyoA parasites, primary antibody and HRP-conjugated secondary antibody, biotin-phenol and hydrogen peroxide; streptavidin beads, mass spectrometry; parental strain as control

Sequences of proteins named here, by UniProt entry; tags and fusion partners are left off.
UniProt A0A125YP06: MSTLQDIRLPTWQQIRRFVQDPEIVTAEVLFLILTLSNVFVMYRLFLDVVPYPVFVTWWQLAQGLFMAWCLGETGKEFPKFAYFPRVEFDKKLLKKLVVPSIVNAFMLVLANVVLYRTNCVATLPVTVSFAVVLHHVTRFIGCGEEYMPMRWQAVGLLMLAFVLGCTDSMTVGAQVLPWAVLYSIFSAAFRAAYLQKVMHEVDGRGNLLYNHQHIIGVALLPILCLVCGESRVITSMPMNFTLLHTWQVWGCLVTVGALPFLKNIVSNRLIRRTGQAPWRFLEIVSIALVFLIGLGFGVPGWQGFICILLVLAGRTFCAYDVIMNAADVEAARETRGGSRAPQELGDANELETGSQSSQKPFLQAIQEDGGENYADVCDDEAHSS

Row | Substance | binding
1 | GAP40 (from UniProt A0A125YP06 1-385) | binds
2 | calcium-dependent protein kinase CDPK2a (from UniProt S8F5F3) (enzyme) | binds

From PMC10983951
